Measured values taken from US10525115B2 (Immatics Biotechnologies GmbH, priority 2014, dated 2020).

What was measured:
primary AML samples = test: HLA class I ligandome analysis (W6/32 immunoaffinity purification, LC-MS/MS) of primary AML samples; set-up: species or system human; conditions: AML patients (n=15)
[1] = tested on: cancer tissues in comparison to non-cancerous tissues and organs; test: Presentation profile / over-presentation by label-free LC-MS (XPRESIDENT), tumor versus normal tissues, other proliferative diseases; set-up: species or system human; conditions: other proliferative diseases / organs (other than AML) that over- or exclusively present the peptide; Table 5
[2] = HLA class I ligandome, count for the HLA ligand (LiTAP) or, on protein lines, for the source protein (LiTAA)

| Substance | Number of positive AMLs (primary AML samples; HLA ligand (LiTAP)) | Proliferative disease and location thereof [1] | Number of positive AMLs (primary AML samples; [2]) |
| --- | --- | --- | --- |
| 243 (IHGDTVQNQL; listed as Homo sapiens) [compound 243] | 2 | colon or rectum, adrenal gland, adrenal cortical carcinoma | – |
| 109 (ESRGPALTR; listed as Homo sapiens) [compound 109] | – | lung, non-small cell lung carcinoma, spleen, extramedullary hematopoiesis | 1 |
| 95 (FLDITNPKA; listed as Homo sapiens) [compound 95] | – | stomach, differentiated subtype adenocarcinoma, lung, small cell carcinoma | 2 |
| 49 (GVLGTVVHGK; listed as Homo sapiens) [compound 49] | – | colon or rectum, liver, focal nodular hyperplasia | 4 |
| 94 (DIKRGIPNY; listed as Homo sapiens) [compound 94] | – | stomach, adenocarcinoma, lung, small cell carcinoma | 1 |
| 295 (ILDEAHERTI; listed as Homo sapiens) [compound 295] | 1 | brain, cancer, lymph node, malignant melanoma | – |
| 229 (AHDDGRWSL; listed as Homo sapiens) [compound 229] | – | stomach, metastatic, lung, squamous cell carcinoma | 1 |
| 153 (GAYGKVFLV; listed as Homo sapiens) [compound 153] | – | liver, hepatocellular carcinoma, kidney, angiomyolipoma | 1 |
| 305 (DSNATAAKM; listed as Homo sapiens) [compound 305] | 1 | colon or rectum, testis, seminoma | – |
| 247 (VSNPKSFEY; listed as Homo sapiens) [compound 247] | 1 | colon or rectum, parathyroid gland, adenoma | – |
| 269 (KLKQTTSALEK; listed as Homo sapiens) [compound 269] | 2 | pancreas, adenocarcinoma, lung, adenocarcinoma | – |
| 223 (NEFQSQQNI; listed as Homo sapiens) [compound 223] | – | kidney, clear cell renal cell carcinoma, spleen, non-Hodgkin's lymphoma | 1 |
| 154 (DHDLLKNF; listed as Homo sapiens) [compound 154] | – | kidney, clear cell renal cell carcinoma, kidney, polycystic kidney disease | 2 |
| 290 (SARLEKLGY; listed as Homo sapiens) [compound 290] | 1 | stomach, metastatic, prostate, benign nodular; hyperplasia | – |
| 172 (HYTIVFNTF; listed as Homo sapiens) [compound 172] | – | colon or rectum, myometrium, leiomyoma | 1 |
| 19 (NLVEKTPAL; listed as Homo sapiens) [compound 19] | – | colon or rectum, kidney, carcinoma | 1 |
| 233 (EELQRNISL; listed as Homo sapiens) [compound 233] | – | kidney, clear cell renal cell carcinoma, ovary, adenocarcinoma | 1 |
| 47 (ALRNQATMVQK; listed as Homo sapiens) [compound 47] | – | stomach, adenocarcinoma, non-Hodgkin's; lymphoma, mycosis fungoides | 2 |
| 97 (KVLALVFGF; listed as Homo sapiens) [compound 97] | – | kidney, angiomyolipoma | 1 |
| 16 (ALASLIRSV; listed as Homo sapiens) [compound 16] | – | thyroid gland, nodular hyperplasia | 5 |
| 83 (RLLESVVVL; listed as Homo sapiens) [compound 83] | – | lung, non-small cell lung carcinoma, spleen, chronic myeloid leukemia | 1 |
| 144 (ARIEIGLHY; listed as Homo sapiens) [compound 144] | – | liver, focal nodular hyperplasia | 1 |
| 211 (KLHDETLTY; listed as Homo sapiens) [compound 211] | – | stomach, adenocarcinoma, ovary, adenocarcinoma | 1 |
| 66 (ETAVAILRF; listed as Homo sapiens) [compound 66] | – | metastatic infiltrating lobular carcinoma of breast | 4 |
| 296 (VIYNEQMASK; listed as Homo sapiens) [compound 296] | 3 | liver, hepatocellular carcinoma, cancer, liver, focal nodular hyperplasia | – |
| 43 (LEEQASRQI; listed as Homo sapiens) [compound 43] | – | stomach, metastatic, adenocarcinoma | 1 |

| Substance | Number of positive AMLs (primary AML samples; HLA ligand (LiTAP)) | Proliferative disease and location thereof [1] | Number of positive AMLs (primary AML samples; [2]) |
| --- | --- | --- | --- |
| 52 (VHSPAGMAL; listed as Homo sapiens) [compound 52] | – | parathyroid gland, adenoma | 1 |
| 297 (EATSIKRVR; listed as Homo sapiens) [compound 297] | 2 | colon or rectum, adenocarcinoma | – |
| 294 (FPPGRQVVM; listed as Homo sapiens) [compound 294] | 2 | brain, cancer, lymph node, malignant melanoma | – |
| 30 (EFITVHSML; listed as Homo sapiens) [compound 30] | – | stomach, skin, basal cell carcinoma | 2 |
| 85 (THGKLVILF; listed as Homo sapiens) [compound 85] | – | lung, non-small cell lung carcinoma, spleen, chronic myeloid leukemia | 2 |
| 212 (LHDETLTYL; listed as Homo sapiens) [compound 212] | – | stomach, adenocarcinoma, ovary, adenocarcinoma | 1 |
| 79 (ILWETVPSM; listed as Homo sapiens) [compound 79] | – | colon or rectum, metastatic renal cell carcinoma | 1 |
| 122 (KEITEGKTV; listed as Homo sapiens) [compound 122] | – | stomach, metastatic, rectum, adenocarcinoma | 1 |
| 182 (LSEIAGMTLP; listed as Homo sapiens) [compound 182] | – | stomach, metastatic, pancreas, adenocarcinoma | 1 |
| 183 (FLSFMNTEL; listed as Homo sapiens) [compound 183] | – | lung, non-small cell lung carcinoma, stomach, adenocarcinoma | 1 |
| 50 (VQFIGRESKY; listed as Homo sapiens) [compound 50] | – | colon or rectum, liver, focal nodular hyperplasia | 1 |
| 158 (KSNSIIVSPR; listed as Homo sapiens) [compound 158] | – | brain, glioblastoma, brain, meningioma | 3 |
| 131 (DTSPDLSSR; listed as Homo sapiens) [compound 131] | – | lung, non-small cell lung carcinoma, testis, seminoma | 1 |
| 13 (LPLRFWVNI; listed as Homo sapiens) [compound 13] | – | liver, hepatocellular carcinoma, cancer, pancreas, adenocarcinoma | 1 |
| 44 (TRMSTVSEL; listed as Homo sapiens) [compound 44] | – | stomach, metastatic, adenocarcinoma | 1 |
| 250 (TSTTRPVL; listed as Homo sapiens) [compound 250] | 1 | lung, non-small cell lung carcinoma, stomach, adenocarcinoma | – |
| 304 (DAKTVNVI; listed as Homo sapiens) [compound 304] | 1 | colon or rectum, testis, seminoma | – |
| 313 (ALEEQLLKY; listed as Homo sapiens) [compound 313] | 3 | stomach, adenocarcinoma, malignant fibrous; histiocytoma | – |
| 199 (LLADITSKY; listed as Homo sapiens) [compound 199] | – | stomach, metastatic, lung, neuroendocrine carcinoma | 1 |
| 103 (VLHQDSGLGY; listed as Homo sapiens) [compound 103] | – | stomach, adenocarcinoma, liver, carcinoid tumor, metastatic | 1 |
| 224 (NVIDYGHASKY; listed as Homo sapiens) [compound 224] | – | kidney, clear cell renal cell carcinoma, spleen, non-Hodgkin's lymphoma | 1 |
| 96 (ALYSVYRQK; listed as Homo sapiens) [compound 96] | – | kidney, angiomyolipoma | 2 |
| 308 (LMAEMGVHSV; listed as Homo sapiens) [compound 308] | 1 | stomach, metastatic, breast, carcinoma | – |
| 70 (DVFERPSAKK; listed as Homo sapiens) [compound 70] | – | kidney, clear cell renal cell carcinoma, synovial; sarcoma | 1 |
| 8 (RAYADEVAV; listed as Homo sapiens) [compound 8] | – | kidney, clear cell renal cell carcinoma, bone, non- ossifying fibroma | 1 |
